Data taken from publication PMC12094911.
These are yes or no findings as the source states them, for the method shown. In cells and extracts the contact can be indirect. Some results given as binding are weak or reduced against the parent protein; the word gives no strength.

Protein sequences, listed by entry. Tags and fused reporters are not part of them. Residues count along the entry.
UniProt P84022: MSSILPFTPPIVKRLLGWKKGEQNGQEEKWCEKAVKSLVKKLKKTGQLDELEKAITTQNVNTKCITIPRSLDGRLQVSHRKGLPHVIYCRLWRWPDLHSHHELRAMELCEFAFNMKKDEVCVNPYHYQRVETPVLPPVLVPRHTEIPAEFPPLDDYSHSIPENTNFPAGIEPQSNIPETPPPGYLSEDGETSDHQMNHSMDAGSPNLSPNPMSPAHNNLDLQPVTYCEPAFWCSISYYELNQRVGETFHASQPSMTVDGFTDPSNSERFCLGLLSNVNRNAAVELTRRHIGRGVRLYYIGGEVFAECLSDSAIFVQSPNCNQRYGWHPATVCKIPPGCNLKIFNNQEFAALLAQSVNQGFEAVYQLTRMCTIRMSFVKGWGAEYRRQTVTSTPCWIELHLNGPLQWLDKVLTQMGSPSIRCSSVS
UniProt Q16665: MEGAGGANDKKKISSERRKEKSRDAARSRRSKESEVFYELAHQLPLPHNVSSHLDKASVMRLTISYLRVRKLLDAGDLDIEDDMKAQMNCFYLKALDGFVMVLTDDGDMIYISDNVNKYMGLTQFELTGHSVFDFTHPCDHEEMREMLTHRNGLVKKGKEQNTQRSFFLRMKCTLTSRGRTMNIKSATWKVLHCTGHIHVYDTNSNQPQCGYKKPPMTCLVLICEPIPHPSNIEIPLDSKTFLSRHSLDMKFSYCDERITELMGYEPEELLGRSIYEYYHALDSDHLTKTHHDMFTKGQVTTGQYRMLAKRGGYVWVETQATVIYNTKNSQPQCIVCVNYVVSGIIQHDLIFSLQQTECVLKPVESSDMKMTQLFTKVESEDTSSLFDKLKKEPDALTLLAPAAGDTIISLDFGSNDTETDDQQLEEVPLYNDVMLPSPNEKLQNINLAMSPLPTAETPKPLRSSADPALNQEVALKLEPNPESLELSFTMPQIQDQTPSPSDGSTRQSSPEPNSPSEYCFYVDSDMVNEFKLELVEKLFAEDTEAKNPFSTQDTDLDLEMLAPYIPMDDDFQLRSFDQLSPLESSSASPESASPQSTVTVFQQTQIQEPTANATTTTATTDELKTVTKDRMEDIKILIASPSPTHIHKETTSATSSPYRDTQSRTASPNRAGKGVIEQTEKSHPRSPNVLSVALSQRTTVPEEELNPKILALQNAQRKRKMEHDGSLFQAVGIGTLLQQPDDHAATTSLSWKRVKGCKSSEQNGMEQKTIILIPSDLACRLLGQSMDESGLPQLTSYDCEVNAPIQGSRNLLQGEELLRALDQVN
UniProt P01137, residues 279-390: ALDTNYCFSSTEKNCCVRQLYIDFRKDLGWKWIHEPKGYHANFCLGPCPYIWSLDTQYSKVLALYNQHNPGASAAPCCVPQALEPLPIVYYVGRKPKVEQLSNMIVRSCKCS

How the values were obtained:
[1] = target: Smad3 (human (endogenous in PANC-1)) (UniProt P84022); experiment: co-IP; immunoprecipitation with Smad3 antibody, blot for HIF-1α; normoxic and hypoxic conditions, with and without TGF-β1 stimulation
[2] = target: Hypoxia-inducible factor-1α (human (endogenous in PANC-1)) (UniProt Q16665); experiment: co-IP; cell lysates incubated with anti-HIF-1α antibodies overnight at 4°C, protein A/G magnetic beads, washed three times with ice-cold PBS; blots with anti-TGF-β and Smad3 antibodies

binding [1]	binding [2]	Substance
binds	–	Hypoxia-inducible factor-1α (from UniProt Q16665 1-826)
–	binds	Transforming growth factor-β1 (from UniProt P01137 279-390)
